# Experimental data reported in PubChem BioAssay AID445 (National Center for Advancing Translational Sciences (NCATS), 2006).
# The list shows a part of the results. Shown are side measurements of this screen, not its main read-out; they come without a call. The list favours compounds with an active or inconclusive main result. Potencies come from curve fits of mixed quality, noted in brackets.
# Test: IkB Signaling
# Details: ABC-DLBCL IkBa-CBG/CBR dual luciferase ratio (green luciferase fused to IkBa over red control in OCI-Ly3 lymphoma cells), 4 h
# In short: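 Luminescence ratio of IκBα-fused green versus native red beetle luciferase in OCI-Ly3 cells, 4 h post-doxycycline with compound; red signal alone, scaled from basal (0%) to zero light (-100%), flagged nonspecific or cytotoxic effects.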
# [1] = measured here: control luc red channel unless noted
smiles,measurement,setting,value
CC1CCN(c2oc(-c3ccccc3F)nc2C#N)CC1,AC50,[1],"3.16 µM [rising, full curve]"
COC(=O)c1ccccc1NC(=O)c1nc(S(=O)(=O)Cc2ccccc2F)ncc1Cl,AC50,[1],"3.16 µM [rising, single point]"
O=C(CSc1nc2c([nH]c3ccccc32)c(=O)n1-c1cccc(Cl)c1)N1CCc2ccccc21,AC50,[1],"25.1 µM [rising, partial curve, poor fit]"
COc1cccc(Cc2nc3ccccc3nc2SCC(=O)N2CCCCC2C)c1 (configuration not stated),AC50,[1],"31.6 µM [falling, single point]"
CCn1c(=O)cc(SCC(=O)N2CCN(Cc3ccc4c(c3)OCO4)CC2)c2ccccc21,AC50,[1],"20 µM [falling, partial curve]"
Cc1ccc2nc(NCc3ccccc3Cl)c3nnnn3c2c1,AC50,[1],"3.98 µM [rising, partial curve, poor fit]"
COc1cccc2cc(C(=O)N3CCc4ccccc4C3)c(=O)oc12,AC50,[1],"0.1 µM [falling, full curve]"
Brc1ccccc1-c1nnc(CSc2nnnn2-c2ccccc2)o1,AC50,[1],"15.8 µM [falling, partial curve]"
COc1cccc(C(=O)CN2CCN(S(=O)(=O)c3ccc(Cl)cc3)CC2)c1,AC50,[1],"39.8 µM [falling, single point]"
O=C(CN1C(=O)CSc2ccc(S(=O)(=O)N3CCCCC3)cc21)NCc1ccc(F)cc1Cl,AC50,[1],"25.1 µM [falling, partial curve]"
O=C(NCc1ccco1)c1ccc2c(c1)N(Cc1ccc(F)cc1)C(=O)c1ccccc1S2=O (configuration not stated),AC50,[1],"12.6 µM [falling, partial curve]"
CN(C)c1nc(N)nc(CSc2nc3cc(Cl)ccc3o2)n1,AC50,[1],"39.8 µM [rising, partial curve]"
CCOc1ccc(NC(=O)Cn2c(CCC(=O)O)ccc2-c2ccc(Cl)cc2)cc1,AC50,[1],"15.8 µM [falling, partial curve]"
CCCN1C(C(=O)c2ccccc2)=C(OC(=O)c2ccc(F)cc2)c2ccccc2S1(=O)=O,AC50,[1],"10 µM [falling, partial curve]"
Cc1ccc(C)c(Cn2c3ccccc3c3cnn(CC(=O)N4CCCCC4)c(=O)c32)c1,AC50,[1],"15.8 µM [falling, partial curve]"
COc1ccc(Cl)cc1NC(=O)c1cc(S(=O)(=O)N2CCc3ccccc32)cn1C,AC50,[1],"15.8 µM [falling, partial curve]"
Cc1cccc(-n2c(=O)c3ccccc3n(Cc3ccccc3C#N)c2=O)c1,AC50,[1],"0.1 µM [rising, partial curve]"
COc1cc2c(C(=O)N3CCN(c4cccc(C)c4)C(C)C3)cn(CC(C)C)c(=O)c2cc1OC (configuration not stated),AC50,[1],"15.8 µM [falling, partial curve]"
CC1CN(C(=O)CCC(=O)NCc2cccc(Cl)c2)c2ccccc2S1 (configuration not stated),AC50,[1],"39.8 µM [falling, single point]"
COc1ccccc1C(=O)N(Cc1nc(-c2cccc(C)c2)no1)C(C)C,AC50,[1],"15.8 µM [falling, partial curve]"
O=C(NCc1ccccc1)c1nc(S(=O)(=O)Cc2ccc(F)cc2)ncc1Cl,AC50,[1],"7.94 µM [falling, full curve]"
Cc1nn(C(C)C(=O)NC2CCC(C)CC2)c(=O)c2c1sc1ccccc12 (configuration not stated),AC50,[1],"1.26 µM [falling, full curve]"
O=S(=O)(NCCc1csc2nc(-c3ccccc3)nn12)c1cccs1,AC50,[1],"39.8 µM [falling, single point]"
Cc1ccc(OCc2nc(-c3ccc(C(=O)NCCc4ccc(Cl)cc4)cc3)oc2C)cc1,AC50,[1],"25.1 µM [falling, single point]"
CCCCc1ccc(NC(=O)c2cc(-c3ccc(C)c(F)c3)on2)cc1,AC50,[1],"7.94 µM [falling, partial curve]"
COc1ccc(C2=C(Nc3ccc(Br)c(C)c3)c3ccccc3C2=O)cc1,AC50,[1],"12.6 µM [falling, partial curve]"
CC(C)Nc1ccc(-c2nc(-c3ccncc3)no2)cc1[N+](=O)[O-],AC50,[1],"12.6 µM [falling, partial curve]"
COCCn1ccc2c(OCC(=O)Nc3c(C)cc(C)cc3C)cccc2c1=O,AC50,[1],"5.01 µM [rising, full curve, poor fit]"
CCCSc1oc(-c2ccco2)nc1S(=O)(=O)c1ccc(Br)cc1,AC50,[1],"12.6 µM [falling, partial curve]"
CC(=O)N1CCc2c(sc3c2c(=O)n(-c2ccc(F)cc2)c(=O)n3Cc2ccc(C#N)cc2)C1,AC50,[1],"1.58 µM [falling, single point]"
Cn1c(=O)oc2cc(S(=O)(=O)Nc3cccc4c3CCCC4)ccc21,AC50,[1],"1 µM [falling, partial curve]"
O=C(Nc1ccc(Cl)cc1)Nc1ccccc1C(=O)NCc1ccco1,AC50,[1],"10 µM [falling, partial curve]"
CCCCN(CC)C(=O)CSc1nc2n[nH]c(C)c2c(=N)n1-c1cccc(C)c1,AC50,[1],"39.8 µM [falling, single point]"
COc1cccc2c1cc1c(=O)n(CC(=O)N3CCN(c4cccc(C(F)(F)F)c4)CC3)nc(C)n12,AC50,[1],"1.58 µM [rising, partial curve]"
O=C(COc1ccccc1Cl)Nc1nnc(S(=O)(=O)N2CCCC2)s1,AC50,[1],"1.58 µM [falling, full curve]"
O=C(Nc1cccc(C(F)(F)F)c1)c1cc(-c2ccc(Cl)s2)nc2ccccc12,AC50,[1],"0.631 µM [rising, single point]"
O=C(Nc1nccs1)c1ccc(S(=O)(=O)NCc2cccs2)cc1,AC50,measured here: IkB-luc green channel,"31.6 µM [falling, single point]"
same,AC50,measured here: control luc red channel,"10 µM [falling, partial curve]"
CC[C@H](C(=O)[C@H](C)[C@H](O)[C@H](C)CCc1ccc(C)c(O)c1C(=O)O)[C@H]1O[C@](CC)([C@@H]2CC[C@@](O)(CC)[C@H](C)O2)C[C@H]1C,AC50,[1],"3.98 µM [falling, full curve]"
COc1cccc2sc(NC(=O)CS(=O)(=O)c3ccc(C)cc3)nc12,AC50,[1],"12.6 µM [falling, partial curve]"
O=C(CCCCn1c(=O)[nH]c2ccccc2c1=O)N1CCN(c2cccc(C(F)(F)F)c2)CC1,AC50,[1],"15.8 µM [falling, partial curve]"
COc1ccc2c(c1)C(C)=CC(C)(C)N2C(=O)CSc1nnc(-c2ccc(C)cc2)o1,AC50,[1],"15.8 µM [falling, partial curve]"
COc1ccc(OC)c(NC(=O)CCCc2nnc3n(C(C)C)c(=O)c4sccc4n23)c1,AC50,[1],"25.1 µM [rising, partial curve]"
CCn1cc2nc(SCc3cccc(C(F)(F)F)c3)n(Cc3ccc(Cl)cc3)c(=O)c2n1,AC50,[1],"7.94 µM [falling, partial curve]"
Cc1ccc(Cl)cc1-n1nnc(-c2nsc(NC(=O)c3ccccc3Cl)n2)c1C,AC50,[1],"20 µM [falling, partial curve]"
COc1cc(C2CC(=O)N3CN(Cc4ccco4)CSC3=C2C#N)ccc1OCc1ccccc1 (configuration not stated),AC50,[1],"12.6 µM [falling, partial curve]"
Cc1ccc2oc(C(=O)Nc3ccc(S(=O)(=O)N4CCCC(C)C4)cc3)cc(=O)c2c1 (configuration not stated),AC50,[1],"20 µM [falling, partial curve]"
CCc1ccc(-n2c(=O)c3ccccc3n(CC(=O)NCCc3ccc(OC)c(OC)c3)c2=O)cc1,AC50,[1],"15.8 µM [falling, partial curve]"
COc1ccc(Cl)cc1NC(=O)NCCn1c(=O)oc2ccc(C)cc21,AC50,[1],"25.1 µM [falling, partial curve]"
Cn1c(=N)n(CC(=O)C(C)(C)C)c2ccccc21,AC50,[1],"3.98 µM [rising, full curve, poor fit]"
O=C(NCc1ccccc1)c1ccc(-c2ccccc2F)o1,AC50,[1],"12.6 µM [falling, single point]"
COc1ccc(OC)c(N(CC(=O)N2CCN(c3cc(Cl)ccc3C)CC2)S(C)(=O)=O)c1,AC50,[1],"15.8 µM [falling, partial curve]"
Cc1ccc(N(CC(=O)N2CCN(c3cccc(Cl)c3)CC2)S(=O)(=O)c2c(C)noc2C)cc1,AC50,[1],"3.98 µM [falling, full curve, poor fit]"
O=C(NCc1ccco1)C1Cc2ccccc2CN1S(=O)(=O)c1ccccc1F (configuration not stated),AC50,[1],"7.94 µM [falling, partial curve]"
Cc1ccccc1NC(=O)c1c(NC(=O)c2ccccc2)sc2c1CCC2,AC50,[1],"0.501 µM [falling, full curve]"
CCN(CC)C(=O)c1sc2c(c1C)c(=O)n(-c1ccccc1)c(=O)n2Cc1c(C)cc(C)cc1C,AC50,[1],"31.6 µM [falling, single point]"
CCOc1ccc(NC(=O)CC2C(=O)N(c3ccccc3)C(=O)N2CCc2cccs2)cc1 (configuration not stated),AC50,[1],"12.6 µM [falling, partial curve]"
Cc1cccc(NC(=O)c2ccccc2O)c1C,AC50,[1],"39.8 µM [falling, single point]"
Cc1ccc(CCNC(=O)c2sc3ncccc3c2-n2c(C)ccc2C)cc1,AC50,[1],"20 µM [falling, partial curve]"
CCC(=O)Nc1ccc(CC)cc1-c1nc2ccccc2n(CC(=O)Nc2cccc(OC)c2)c1=O,AC50,[1],"15.8 µM [falling, single point]"
COc1cccc(C2=CC(c3ccccc3F)n3ncc(C(=O)Nc4ccc(C)cc4)c3N2)c1 (configuration not stated),AC50,[1],"31.6 µM [falling, partial curve]"
COc1ccc(-c2nc(CS(=O)CC(=O)NCCc3ccccc3)c(C)o2)cc1OC (configuration not stated),AC50,[1],"7.94 µM [rising, full curve]"

# Reprinted at random: two entries already listed.
smiles,measurement,setting,value
Cc1cccc(-n2c(=O)c3ccccc3n(Cc3ccccc3C#N)c2=O)c1,AC50,[1],"0.1 µM [rising, partial curve]"
COc1ccccc1C(=O)N(Cc1nc(-c2cccc(C)c2)no1)C(C)C,AC50,[1],"15.8 µM [falling, partial curve]"
